Data as given in PubChem BioAssay AID1259308 (NCATS, 2017)

- Assay: 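Candidate targets for better recombinant protein yield in mammalian cells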 (primary screen)
- Cell system: human HEK293 embryonic kidney cells stably expressing firefly luciferase (HEK-CMV-Luc2-Hygro)
- Knock-down reagent: single siRNA against human genes, 0.8 pmol siRNA per well
- Timing: 72 h
- Detection: 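Luciferase light (ONE-Glo) measured on one replicate plate set and viability (CellTiter-Glo) on the other, scaled to a negative control siRNA, with robust z-scores and luciferase per cell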
- Direction: total luciferase, z-score: higher = more reporter protein produced
- Active means: 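Active when the median/MAD z-score for overall luciferase is greater than 3; a gene was taken forward for validation with new siRNAs if at least two of its three siRNAs passed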
- Calls: active = raised luciferase; inactive = no rise
This is an unselected part of about 59,000 deposited reagents. About 1,510 of all reagents (2.6%) were called active. 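Calls use total luciferase alone and ignore viability, so some active siRNAs may act by altering cell number.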 Further read-outs or replicates are left out here.

How did the screen score TMTC3 (GeneID 160418) [SID160759772]?
total luciferase, z-score: -2.7; Call: inactive

For TMTC3 (GeneID 160418) [SID160759773], what does the deposit list?
total luciferase, z-score: 0.266; Call: inactive

With TMTC3 (GeneID 160418) [SID160759774], how do the results read?
total luciferase, z-score: 0.67; Call: inactive

How did the screen score CENPH (GeneID 64946) [SID160748157]?
total luciferase, z-score: 2.87; Call: inactive

What did the screen give for CENPH (GeneID 64946) [SID160748158]?
total luciferase, z-score: 0.151; Call: inactive

With CENPH (GeneID 64946) [SID160748160], what was measured?
total luciferase, z-score: -0.187; Call: inactive

With RPL10P17 (GeneID 390998) [SID160725291], what does the deposit list?
total luciferase, z-score: 1.32; Call: inactive

How did the screen score RPL10P17 (GeneID 390998) [SID160725292]?
total luciferase, z-score: 0.695; Call: inactive

For RPL10P17 (GeneID 390998) [SID160766617], what was measured?
total luciferase, z-score: 1.04; Call: inactive

For RPS15AP34 (GeneID 390735) [SID160725270], what was measured?
total luciferase, z-score: 2.41; Call: inactive

For RPS15AP34 (GeneID 390735) [SID160766563], what does the deposit list?
total luciferase, z-score: -2.31; Call: inactive

What did the screen give for RPS15AP34 (GeneID 390735) [SID160766564]?
total luciferase, z-score: 0.567; Call: inactive

For CPVL (GeneID 54504) [SID160741809], what does the deposit list?
total luciferase, z-score: -0.0617; Call: inactive

What is on record for CPVL (GeneID 54504) [SID160741810]?
total luciferase, z-score: 0.0764; Call: inactive

Which result is listed for CPVL (GeneID 54504) [SID160741811]?
total luciferase, z-score: -0.246; Call: inactive

With KCNJ6 (GeneID 3763) [SID160776178], how do the results read?
total luciferase, z-score: -0.921; Call: inactive

What did the screen give for KCNJ6 (GeneID 3763) [SID160776179]?
total luciferase, z-score: -0.287; Call: inactive

Which result is listed for KCNJ6 (GeneID 3763) [SID160776180]?
total luciferase, z-score: 1.94; Call: inactive

With FKBP9 (GeneID 11328) [SID160730635], what was measured?
total luciferase, z-score: 0.0871; Call: inactive

Which result is listed for FKBP9 (GeneID 11328) [SID160730644]?
total luciferase, z-score: 1.27; Call: inactive

For FKBP9 (GeneID 11328) [SID160730655], what was measured?
total luciferase, z-score: 0.0899; Call: inactive

Not a retest: an excerpt of the list.
CPVL (GeneID 54504) [SID160741809]: total luciferase, z-score = -0.0617; Call = inactive
CPVL (GeneID 54504) [SID160741810]: total luciferase, z-score = 0.0764; Call = inactive
